Results are given in words; binding and its absence hold for the method and conditions named. Binding seen in cells or lysates may run through a third protein. Some binding calls cover weakened binding; strength is not graded here.

The chains behind the UniProt entries cited, without tags or fusion partners.
UniProt Q60610: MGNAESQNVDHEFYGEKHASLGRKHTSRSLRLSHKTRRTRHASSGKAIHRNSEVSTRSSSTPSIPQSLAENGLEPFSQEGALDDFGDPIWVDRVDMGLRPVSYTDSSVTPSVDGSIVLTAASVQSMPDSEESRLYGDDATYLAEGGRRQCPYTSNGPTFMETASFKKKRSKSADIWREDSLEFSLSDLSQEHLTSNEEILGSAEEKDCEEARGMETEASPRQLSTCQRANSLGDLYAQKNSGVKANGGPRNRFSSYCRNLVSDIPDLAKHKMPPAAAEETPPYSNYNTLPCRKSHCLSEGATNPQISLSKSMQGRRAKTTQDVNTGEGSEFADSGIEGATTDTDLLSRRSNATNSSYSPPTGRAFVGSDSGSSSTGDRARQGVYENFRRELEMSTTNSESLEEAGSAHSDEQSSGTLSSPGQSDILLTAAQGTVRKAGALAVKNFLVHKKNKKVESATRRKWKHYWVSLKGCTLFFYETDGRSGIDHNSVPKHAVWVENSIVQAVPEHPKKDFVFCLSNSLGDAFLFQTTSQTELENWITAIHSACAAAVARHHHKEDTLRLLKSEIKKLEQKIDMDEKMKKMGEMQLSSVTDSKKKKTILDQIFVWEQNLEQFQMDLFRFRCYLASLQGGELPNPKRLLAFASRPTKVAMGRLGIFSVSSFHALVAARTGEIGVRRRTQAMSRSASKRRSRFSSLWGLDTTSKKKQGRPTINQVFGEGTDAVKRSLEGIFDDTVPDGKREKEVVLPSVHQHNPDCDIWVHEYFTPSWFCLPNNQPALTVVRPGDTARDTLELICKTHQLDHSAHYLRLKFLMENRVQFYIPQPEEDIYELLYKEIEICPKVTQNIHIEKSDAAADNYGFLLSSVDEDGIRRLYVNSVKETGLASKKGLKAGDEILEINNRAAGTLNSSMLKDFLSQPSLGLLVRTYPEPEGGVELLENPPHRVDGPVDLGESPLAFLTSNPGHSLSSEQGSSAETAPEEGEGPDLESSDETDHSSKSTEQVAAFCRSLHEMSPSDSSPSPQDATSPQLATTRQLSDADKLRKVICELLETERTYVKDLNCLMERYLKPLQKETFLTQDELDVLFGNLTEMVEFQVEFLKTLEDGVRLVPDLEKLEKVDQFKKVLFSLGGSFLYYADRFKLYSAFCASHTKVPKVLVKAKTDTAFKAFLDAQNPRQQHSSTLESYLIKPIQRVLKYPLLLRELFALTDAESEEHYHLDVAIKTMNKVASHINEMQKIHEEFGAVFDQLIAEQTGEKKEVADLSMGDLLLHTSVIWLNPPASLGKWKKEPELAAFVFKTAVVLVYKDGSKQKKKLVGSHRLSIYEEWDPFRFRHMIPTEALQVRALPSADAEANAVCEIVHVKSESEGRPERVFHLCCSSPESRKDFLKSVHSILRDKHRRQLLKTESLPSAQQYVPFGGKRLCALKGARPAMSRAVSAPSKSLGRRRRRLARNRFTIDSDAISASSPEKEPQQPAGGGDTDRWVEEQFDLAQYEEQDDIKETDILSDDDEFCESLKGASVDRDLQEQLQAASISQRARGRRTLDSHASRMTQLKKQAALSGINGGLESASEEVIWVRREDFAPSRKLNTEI
UniProt O08539: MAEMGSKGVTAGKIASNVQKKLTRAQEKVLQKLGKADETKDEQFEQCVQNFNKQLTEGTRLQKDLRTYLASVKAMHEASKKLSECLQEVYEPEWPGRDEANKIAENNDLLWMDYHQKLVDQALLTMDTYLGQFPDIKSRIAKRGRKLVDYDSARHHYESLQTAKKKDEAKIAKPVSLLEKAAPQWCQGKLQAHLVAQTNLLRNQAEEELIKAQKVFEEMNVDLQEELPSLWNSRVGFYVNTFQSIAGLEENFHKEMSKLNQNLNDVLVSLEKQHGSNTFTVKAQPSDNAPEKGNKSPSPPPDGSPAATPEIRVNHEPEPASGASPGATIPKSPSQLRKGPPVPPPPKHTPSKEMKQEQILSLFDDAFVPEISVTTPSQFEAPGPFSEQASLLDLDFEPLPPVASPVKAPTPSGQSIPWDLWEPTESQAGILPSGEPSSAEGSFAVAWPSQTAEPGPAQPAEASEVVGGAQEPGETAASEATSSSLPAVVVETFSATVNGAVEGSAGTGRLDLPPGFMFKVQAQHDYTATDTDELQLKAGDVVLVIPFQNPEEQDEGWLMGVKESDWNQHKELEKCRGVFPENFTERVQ
UniProt Q811D0: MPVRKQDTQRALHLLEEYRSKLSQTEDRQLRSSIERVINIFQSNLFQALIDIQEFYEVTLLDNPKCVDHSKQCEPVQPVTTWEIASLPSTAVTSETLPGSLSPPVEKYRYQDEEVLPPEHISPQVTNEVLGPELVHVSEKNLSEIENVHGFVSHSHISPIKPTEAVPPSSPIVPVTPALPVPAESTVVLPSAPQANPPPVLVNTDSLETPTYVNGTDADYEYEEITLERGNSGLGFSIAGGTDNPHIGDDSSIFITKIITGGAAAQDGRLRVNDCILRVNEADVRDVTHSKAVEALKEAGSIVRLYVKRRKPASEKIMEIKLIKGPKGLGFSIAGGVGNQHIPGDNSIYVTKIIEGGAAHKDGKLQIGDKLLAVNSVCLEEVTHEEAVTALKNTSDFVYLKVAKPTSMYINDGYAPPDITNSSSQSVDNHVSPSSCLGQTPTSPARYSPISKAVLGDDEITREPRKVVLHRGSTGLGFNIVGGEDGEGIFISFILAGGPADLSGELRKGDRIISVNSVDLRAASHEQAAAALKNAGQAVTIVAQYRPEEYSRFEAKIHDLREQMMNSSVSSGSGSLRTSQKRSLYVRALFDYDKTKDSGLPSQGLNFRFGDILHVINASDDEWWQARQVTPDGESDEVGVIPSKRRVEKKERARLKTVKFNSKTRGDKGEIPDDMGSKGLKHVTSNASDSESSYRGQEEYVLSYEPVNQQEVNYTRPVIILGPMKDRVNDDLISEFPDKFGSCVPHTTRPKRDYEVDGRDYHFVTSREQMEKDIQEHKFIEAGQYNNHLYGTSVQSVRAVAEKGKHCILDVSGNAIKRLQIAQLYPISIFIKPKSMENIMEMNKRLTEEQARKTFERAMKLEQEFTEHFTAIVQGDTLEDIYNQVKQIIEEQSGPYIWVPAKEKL

The target of assay [1] is TIAM1 (endogenous, mouse primary hippocampal neurons) (mouse (endogenous in primary hippocampal neurons)) (UniProt Q60610). The assay can be described thus: proximity ligation.
The target of assay [2] is BIN1 (endogenous, mouse primary hippocampal neurons) (mouse (endogenous in primary hippocampal neurons)) (UniProt O08539). The assay can be described thus: proximity ligation.

For the substance “DLG1 (endogenous, mouse primary hippocampal neurons) (from UniProt Q811D0 1-905)”, the binding result in assay [1] is recorded as “binds”.

Consider “TIAM1 (endogenous, mouse primary hippocampal neurons) (from UniProt Q60610 1-1591)”, for which the binding entry in assay [2] was “binds”.

The record behind these values is doi:10.1101/437228.
